In patent publication US4619939A, “Process for reducing intraocular pressure” (priority 1985, dated 1986):
At least one structure is not confirmed: it was looked up by name or label, or the drawing left a doubt.

Assays:
[1] = chloroform partition coefficient at pH 7.2; format: physicochemical
Protocol: Another critical property necessary in the inhibitors employed in this invention is the chloroform partition coefficient which must be at least 0.01. This property also relates to the lipid solubility of the compound employed and it is measured as described above with respect to ether. The procedure is the same as that described above except that chloroform is employed in place of ether.

[2] = ether partition coefficient at pH 7.2; format: physicochemical
Protocol: This property in conjunction with the chloroform coefficient is a measure of the lipid solubility of this compound. This is a critical feature since the compound must be readily absorbed by the lipid materials in the eye and be available for intimate contact with carbonic anhydrase so as to control its activity. This property is measured by preparing an aqueous solution of the compound at pH 7.2 and shaking the solution with an equal volume of ether until equilibrium is achieved in the system. An ether layer and an aqueous layer are formed, separated, and each analyzed for its content of the compound. The coefficient is the ratio of the amount of the compound in the ether layer to the amount of the compound in the aqueous layer. See, e.g., Maren, J. Pharm. […] Therap. Vol. 130, p.

NS(=O)(=O)c1nnc(-c2ccccc2Cl)s1 [2-orthochlorophenylthiadiazole-5-sulfonamide]
chloroform partition coefficient [1]: 10 | ether partition coefficient [2]: 25
